# Test results taken from US20110294219A1.
# Chains of the proteins cited; added tags and fusions are not shown.
# UniProt Q9HC16: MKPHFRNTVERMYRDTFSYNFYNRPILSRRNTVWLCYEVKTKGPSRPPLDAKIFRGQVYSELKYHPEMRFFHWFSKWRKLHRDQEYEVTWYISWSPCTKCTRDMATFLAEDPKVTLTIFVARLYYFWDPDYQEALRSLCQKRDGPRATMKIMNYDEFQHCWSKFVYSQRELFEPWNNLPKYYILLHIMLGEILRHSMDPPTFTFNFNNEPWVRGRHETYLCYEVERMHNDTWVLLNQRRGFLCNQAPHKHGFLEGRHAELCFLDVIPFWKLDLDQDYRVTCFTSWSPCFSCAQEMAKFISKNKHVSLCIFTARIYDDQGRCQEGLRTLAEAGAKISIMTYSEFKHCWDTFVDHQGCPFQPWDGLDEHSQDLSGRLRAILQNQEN
# Results are given in words; binding and its absence hold for the method and conditions named. In cells and extracts the contact can be indirect. Some binding calls cover weakened binding; strength is not graded here.
# Target: HA-tagged human APOBEC3G (human) (UniProt Q9HC16)
# Experiment: co-precipitation with anti-HA antibody from cytoplasmic extracts of co-transfected 293T cells, immunoblot with anti-HFV Bet antiserum
binder,measurement,value
human foamy virus (HFV) Bet protein (protein) MDSYEKEESVASTSGIQDLQTLSELVGPENAGEGELTIAEEPEENPRRPRRYTKREVKCVSYHAYKEIEDKHPQHIKLQDWIPTPEEMIAQKVQNQDLGTILSFDVTCLKSITSLGRNDPGDDPSIMSHVLPVVTPWPMSQDHYAPTLFGILDRYYQGYLKSPATYQTWKFTCQVDPSGKRFMETQFWVPPLGQVNIQFYKNYQILTCCQAVDPFANIFHGTDEEMFDIDSGPDVWCSPSLCFKVIYEGAMGQKQEQKTWLCRLGHGHRMGACDYRKVDLYAMRQGKENPYGDRGDAALQYAYQVKRGCKAGCLASPVLNYKALQFHRTIMADFTNPRIGEGHLAHGYQAAMEAYGPQRGSNEERVWWNVTRNQGKQGGEYYREGGEEPHYPNTPAPHRRTWDERHKVLKLSSFATPSDIQRWTTKALPYGWKVVTESGNDYTSRRKIRTLTEMTQDEIRKRWESGYCDPFIDSGSDSDGPF,binding,binds
